Results taken from PubChem BioAssay AID504444 (National Center for Advancing Translational Sciences (NCATS), 2011).
Hit rate of the full screen: of about 360,000 compounds, about 7,500 (2.1%) were called active. The shares of active, inactive and inconclusive entries below differ from those in the screen. Calls come from the whole dose curve; as a rule, active = well fitted inhibition curve with a large enough effect; inconclusive = small, poorly fitted or top-dose-only effect, or effect the other way; inactive = flat fitted curve, though single readings scatter. Where the call is inconclusive, the potency comes from a doubtful curve fit.

Assay: Nrf2 qHTS screen for inhibitors; note: nearly all actives have a fitted effect of over 60% in size
Conditions: A549 ARE-Fluc reporter, luciferase luminescence, 18-24 h; activity change, negative = inhibition: at 46 µM (top of the series)
Method in brief: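 Cells were seeded and rested 2 h, then exposed to compounds for 18-24 h. CellTiter-Fluor was read first as a viability measure. BugLite was added 15 min before the final luminescent read of ARE-luciferase activity in A549 cells.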
% is set by controls: 0 for no effect and ±100 for the full control effect; potency is the fitted concentration of half-maximal effect.

SMILES	Potency	activity change, negative = inhibition
COc1ccccc1NC(=O)c1c(-c2ccc(C)cc2)nnc2ccccc12	inconclusive: 29.1 µM [falling, single point]	–
Cc1nc(C)c(C(=O)Nc2ccc(Oc3ccccc3)cc2)o1	inconclusive: 11.6 µM [falling, partial curve, poor fit]	–
CC1CCCN(Cc2nc3c(c(=O)n(C)c(=O)n3C)n2CC(=O)c2ccccc2)C1 (stereo not given)	inconclusive: 6.51 µM [activator, single point]	–
O=C(Oc1cccc(N2C(=O)CCC2=O)c1)c1ccccc1	inconclusive: 23.1 µM [activator, single point]	–
CC(=O)c1ccc(NC(=O)CN2CCN(c3ccccc3)CC2)cc1	–	inactive: -18.2%
CCC(=O)N1CCc2cc(S(=O)(=O)NC(Cc3ccccc3)C(=O)NCc3ccccc3)ccc21 (stereo not given)	–	inactive: -2.93%
COc1cc(CNCCN2CCOCC2)ccc1OCc1ccc(Cl)cc1	inconclusive: 29.1 µM [activator, single point]	–
CCCn1nnc(NC(=S)NC(=O)c2cccs2)n1	inconclusive: 29.1 µM [activator, single point]	–
CN1CCN(c2ccc(NC(=O)c3ccc(-c4ccccc4F)o3)cc2)CC1	inconclusive: 13 µM [activator, partial curve]	–
C/C(=N\NC(=O)c1c(Br)cnn1C)c1ccc(NC(=O)c2ccc(F)cc2)cc1	inconclusive: 29.1 µM [falling, single point]	–
CN1CCc2c(sc(N)c2C(=O)c2ccc(Cl)cc2)C1	inconclusive: 20.6 µM [activator, single point]	–
Cc1c(C(=O)N2CCN(c3ccc(C(F)(F)F)cn3)CC2)oc2ccccc12	inconclusive: 13 µM [falling, partial curve]	–
CSc1ccccc1C(=O)Nc1ccc2c(c1)CCC2	inconclusive: 10.3 µM [activator, partial curve]	–
O=C(N/N=C/c1ccco1)c1cc(-c2ccccc2)nc2ccccc12	–	inactive: 6.67%
Cc1nc(-c2ccc(S(=O)(=O)Nc3cc(F)ccc3F)cc2)co1	inconclusive: 29.1 µM [falling, single point]	–
CC1CC(C)CN(c2ncnc3c2cnn3Cc2ccc(Cl)cc2)C1 (stereo not given)	inconclusive: 20.6 µM [falling, single point]	–
CCc1cc(=O)oc2c3c(cc(OCC(=O)NCc4ccco4)c12)OC(C)(C)CC3	inconclusive: 20.6 µM [falling, single point]	–
COC(=O)C(NC(=O)CCc1nnc2ccc(N3CCCCC3)nn12)C(C)C (stereo not given)	–	inactive: 15.8%
Cc1cccc(Cc2nnc(CCC(=O)N(C)C3CCOC3)o2)c1 (stereo not given)	inconclusive: 9.2 µM [activator, partial curve]	–
CCOC(=O)c1cc(-c2ccc(/C=C3/C(=O)NC(=O)C(C#N)=C3C)o2)ccc1Cl	inconclusive: 8.2 µM [activator, partial curve, poor fit]	–
Nc1c(C(=O)N2CCOCC2)sc(=S)n1-c1ccccc1	inconclusive: 0.731 µM [falling, full curve, poor fit]	–
COc1c(Cl)cc(C(=O)Nc2cc(-c3nc4ccccc4[nH]3)ccc2C)cc1Cl	inconclusive: 20.6 µM [falling, partial curve]	–

An excerpt of these results, field by field.
CCC(=O)N1CCc2cc(S(=O)(=O)NC(Cc3ccccc3)C(=O)NCc3ccccc3)ccc21 (stereo not given)
  activity change, negative = inhibition: inactive: -2.93%
COc1cc(CNCCN2CCOCC2)ccc1OCc1ccc(Cl)cc1
  Potency: inconclusive: 29.1 µM [activator, single point]
CCCn1nnc(NC(=S)NC(=O)c2cccs2)n1
  Potency: inconclusive: 29.1 µM [activator, single point]

Continued.

SMILES	Potency	activity change, negative = inhibition
O=C(Nc1ccc2c(c1)OCO2)c1ccc(COc2ccc3c(c2)CCC3)o1	inconclusive: 32.6 µM [falling, single point]	–
COc1cc(C2Nc3ccc4ncccc4c3C3=C2C(=O)CCC3)cc(OC)c1O (stereo not given)	inconclusive: 0.206 µM [activator, partial curve, poor fit]	–
Clc1ccccc1Nc1nc2ccccc2o1	inconclusive: 9.2 µM [activator, partial curve]	–
COc1ccc2c(=O)c(C(=O)NCCc3ccc(OC)c(OC)c3)c[nH]c2c1	inconclusive: 29.1 µM [falling, single point]	–
CN(C)CCN(CC1CCCN(Cc2ccccc2F)C1)C(=O)c1ccc(F)cc1 (stereo not given)	–	inactive: -5.45%
O=C(CSc1ccc(-c2ccco2)nn1)Nc1ccc(F)cc1	inconclusive: 20.6 µM [falling, single point]	–
CCOC(=O)C1(CCCc2ccccc2)CCN(C(=O)c2cnc(C)cn2)CC1	–	inactive: -1.56%
CCC(=NNC(=O)c1ccc2c(c1)nc(C)n2CC)c1cc(F)ccc1O	active: 6.51 µM	–
CC(=O)NC(=S)Nc1ccc(-c2nc3ccc(C)cc3s2)cc1	inconclusive: 0.651 µM [activator, partial curve]	–
Cc1csc(NC(=O)c2c(-c3ccccc3)noc2C)n1	inconclusive: 5.17 µM [activator, full curve]	–
O=C(N/N=C/c1ccc(OC2CSC2)cc1)c1ccccc1	–	inactive: 23.9%
COc1ccc(-n2c(SCC(=O)Nc3nccs3)nc3sc4c(c3c2=O)CCN(C)C4)cc1	inconclusive: 11.6 µM [falling, partial curve]	–
COc1ccccc1N(CC(=O)NC1CC2CCC1C2)S(=O)(=O)c1ccc(C)cc1 (stereo not given)	active: 18.4 µM	–
CCOc1ccccc1N1CCN(C(=O)C2c3ccccc3Oc3ccccc32)CC1	inconclusive: 11.6 µM [falling, partial curve, poor fit]	–
COc1ccc(/C=C/C(=O)c2c(O)ccc3c(C)cc(=O)oc23)cc1	inconclusive: 16.4 µM [falling, single point]	–
CCOC(=O)N1CCC(NC(=O)c2ccc3c(c2)N(Cc2ccccc2C)C(=O)c2ccccc2S3=O)CC1 (stereo not given)	–	inactive: 0.0447%
COc1ccc(/C=C2/C(=O)N(c3nc4ccccc4s3)N=C2CSc2ccc(Cl)cc2)cc1	–	inactive: 12.1%
COC(=O)c1c(-c2ccc(C)cc2)csc1NC(=O)Cc1ccc(OC)c(OC)c1	active: 18.4 µM	–
Cn1c(=O)c2c(ncn2CCOc2ccc(Br)cc2)n(C)c1=O	inconclusive: 20.6 µM [falling, partial curve]	–
Cc1cc(C(=O)N2CCC(C(F)(F)F)n3nccc32)on1 (stereo not given)	inconclusive: 18.4 µM [activator, partial curve]	–
Cc1ccc(S(=O)(=O)CCC(=O)OCC(=O)NCC(=O)Nc2c(C)cc(C)cc2C)cc1	–	inactive: 4.76%
Cc1sc2nc(CN(C(=O)NC3CCCCC3)C3CCCCC3)[nH]c(=O)c2c1C	inconclusive: 2.31 µM [falling, partial curve, poor fit]	–

SMILES	Potency	activity change, negative = inhibition
CCN1CCc2c(OCc3ccccc3)cccc2C1=O	inconclusive: 4.11 µM [falling, full curve]	–
CN1CCN(C(=O)CCCN2C(=O)/C(=C/c3ccc(Cl)cc3)SC2=S)CC1	inconclusive: 23.1 µM [activator, single point]	–
Cc1ccc(-n2[nH]c(C)c(/C=N/c3ccccn3)c2=O)cc1	–	inactive: 2.4%
O=C(CC(Cc1ccccc1)C(=O)O)Nc1ccc(Cl)c(Cl)c1 (stereo not given)	inconclusive: 29.1 µM [falling, single point]	–
COc1ccc(C2CC(c3cccc(F)c3)=NN2c2ccc(S(N)(=O)=O)cc2)cc1 (stereo not given)	inconclusive: 29.1 µM [falling, single point]	–
O=C(Nc1ccc2nc(SCc3ccc(Cl)cc3)sc2c1)c1ccccc1C(=O)N1CCOCC1	inconclusive: 18.4 µM [falling, single point]	–
CC1CC(C)CN(C(=O)C2CCN(S(=O)(=O)c3ccc4c(c3)CC(C)N4C(=O)C3CC3)CC2)C1 (stereo not given)	inconclusive: 9.2 µM [falling, partial curve, poor fit]	–
CC(C)c1ccc(C2CC(=O)Nc3cc4c(cc32)OCCO4)cc1 (stereo not given)	inconclusive: 20.6 µM [falling, single point]	–
O=C1[C@@H]2Cc3c([nH]c4ccccc34)C(c3cccc(Br)c3)N2C(=O)CN1C1CCN(Cc2ccccc2)CC1 (stereo not given in full)	inconclusive: 6.51 µM [falling, full curve, poor fit]	–
Cc1ccccc1Cn1ccn(-c2ccc(F)c(F)c2)c(=O)c1=O	–	inactive: -9.23%
O=C(Cc1sc(Nc2ccccc2)nc1-c1ccccc1)NCc1ccccc1	inconclusive: 32.6 µM [falling, partial curve, poor fit]	–
Cc1cc(C(=O)COC(=O)c2ccc[nH]c2=O)c(C)n1C	inconclusive: 9.2 µM [activator, partial curve]	–
Cc1ccc2nc(-c3cccc(Br)c3)cc(C(=O)NCC3CCCO3)c2c1 (stereo not given)	inconclusive: 32.6 µM [falling, single point]	–
COc1ccc(-c2cc(C(F)(F)F)nc(SCC(=O)N(C)Cc3cn(C)nc3C)n2)cc1OC	inconclusive: 0.731 µM [falling, partial curve]	–
CN(c1ccccc1)S(=O)(=O)c1ccc(C(=O)Nc2nnc(C3CC3)s2)cc1	inconclusive: 18.4 µM [falling, partial curve, poor fit]	–
Cc1cc(C(=O)N2CCCC(C(=O)c3ccc(Oc4ccccc4)cc3)C2)n[nH]1 (stereo not given)	inconclusive: 29.1 µM [falling, single point]	–
CCC(/C=C1\Sc2ccc(OC)cc2N1CC)=C\c1sc2ccc(OC)cc2[n+]1CCCS(=O)(=O)[O-]	active: 10.3 µM	–
CSc1ncnc2c1ncn2CC(=O)C1CCC2C3CCC4=CC(=O)CCC4(C)C3CCC12C (stereo not given)	inconclusive: 13 µM [falling, partial curve, poor fit]	–
COc1ccc(/C=C2\SC(=O)N(CCC(=O)NC3CCS(=O)(=O)C3)C2=O)cc1 (stereo not given)	inconclusive: 29.1 µM [activator, single point]	–
Cc1cccc(-n2ncc3c2CCCC3NC(=O)C2CCOCC2)c1C (stereo not given)	inconclusive: 7.31 µM [falling, partial curve]	–
O=C(CSc1nc2ccccc2s1)Nc1ccc(Cl)c(S(=O)(=O)N2CCOCC2)c1	inconclusive: 16.4 µM [falling, single point]	–
